Reference: publication PMC2877798
These are yes or no findings as the source states them, for the method shown. Binding can be weak; no strength is given.

Protein sequences, listed by entry. Tags and fused reporters are not part of them.
UniProt P10484: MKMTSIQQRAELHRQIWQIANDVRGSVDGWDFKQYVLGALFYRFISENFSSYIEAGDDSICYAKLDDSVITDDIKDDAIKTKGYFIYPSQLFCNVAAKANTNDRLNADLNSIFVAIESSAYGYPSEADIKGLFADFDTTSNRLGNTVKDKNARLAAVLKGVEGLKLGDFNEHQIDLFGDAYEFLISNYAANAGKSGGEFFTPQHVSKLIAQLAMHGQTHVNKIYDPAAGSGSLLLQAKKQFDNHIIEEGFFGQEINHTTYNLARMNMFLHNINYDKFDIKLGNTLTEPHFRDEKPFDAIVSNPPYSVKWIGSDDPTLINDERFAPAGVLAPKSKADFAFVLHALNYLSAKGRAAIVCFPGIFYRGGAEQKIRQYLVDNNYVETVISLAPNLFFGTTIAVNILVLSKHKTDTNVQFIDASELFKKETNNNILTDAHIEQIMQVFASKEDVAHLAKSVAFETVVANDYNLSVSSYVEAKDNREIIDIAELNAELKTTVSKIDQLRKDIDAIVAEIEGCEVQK

Molecular target: SNT, residues 1–215 of the HsdS (specificity) subunit of EcoR124I (UniProt P10485)
Test: small-angle neutron scattering (SANS); reconstituted M.EcoR124INT, fully hydrogenated in 100% D2O, or with deuterated SNT and hydrogenated M in 40% and 100% D2O (contrast variation); buffer A; ab initio models with DAMMIN, P2 symmetry imposed; both purified

M subunit (HsdM) of EcoR124I (from UniProt P10484 1-520)
binding: binds
